# According to patent US9273364B2 (Kyoto University, priority 2010, dated 2016):
# Tested on: alternative splicing of a specific gene (GFP/RFP reporter)
# Experiment: Compound screen with GFP/RFP alternative splicing reporter
# Type: cell-based
# Description: Strategy of a method for testing whether or not a compound to be tested affects an alternative splicing of a specific gene in a mammalian multicelluar organism is shown in FIG. 14.
# The reporter proteins used for the method are GFP and FRP.
structure (smiles),measurement,value
CCCN1CCC[C@@H]2Cc3n[nH]cc3C[C@H]21.Cl [Quinpirole HCl (−)-],last column of Table 4 (head not shown in these continuation tables; table is sorted descending by it; probably the normalised GFP/RFP reporter ratio),0.8969
